The values below come from paper PMC4324837 (Antiviral research, 2014).

This data set has as its system CMV AD169IE2-YFP. Nature of the data set: in vitro. To be noted: MRC5 cells. Type of data set: cell-based, Human cytomegalovirus.

Molecules are shown by their SMILES.

`COc1cc2c(c(OC)c1OC)-c1ccc(OC)c(=O)cc1[C@@H](NC(C)=O)CC2` [Colchicine]: the “Selective Ratio (CC50/EC50)” value was greater than 28. Further, the selectivity ratio (human, Selective Ratio (CC50/EC50)) was less than 30.
